Assay results published in PMC10016038, “Enhanced Endosomal Signaling and Desensitization of GLP-1R vs GIPR in Pancreatic Beta Cells” (Endocrinology, 2023).
These are yes or no findings as the source states them, for the method shown. For some assays here: In cells and extracts the contact can be indirect. Some binding calls cover weakened binding; strength is not graded here.

Chains of the proteins cited; added tags and fusions are not shown. Residues count along the entry.
UniProt P43220, residues 24-463: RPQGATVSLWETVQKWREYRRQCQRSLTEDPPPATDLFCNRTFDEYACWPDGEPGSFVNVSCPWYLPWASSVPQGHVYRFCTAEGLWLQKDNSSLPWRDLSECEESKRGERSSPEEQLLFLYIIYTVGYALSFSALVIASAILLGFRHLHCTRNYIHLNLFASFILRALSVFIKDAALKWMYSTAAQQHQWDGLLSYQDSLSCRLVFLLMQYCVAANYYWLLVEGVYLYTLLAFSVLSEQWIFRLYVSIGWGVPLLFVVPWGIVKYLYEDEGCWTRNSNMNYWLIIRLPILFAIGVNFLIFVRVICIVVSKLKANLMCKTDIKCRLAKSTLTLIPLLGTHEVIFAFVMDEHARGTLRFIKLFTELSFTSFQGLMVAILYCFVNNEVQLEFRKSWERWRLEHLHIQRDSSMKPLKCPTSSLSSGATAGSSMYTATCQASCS
UniProt P09681, residues 52-93: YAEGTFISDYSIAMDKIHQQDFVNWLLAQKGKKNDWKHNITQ
UniProt P32121: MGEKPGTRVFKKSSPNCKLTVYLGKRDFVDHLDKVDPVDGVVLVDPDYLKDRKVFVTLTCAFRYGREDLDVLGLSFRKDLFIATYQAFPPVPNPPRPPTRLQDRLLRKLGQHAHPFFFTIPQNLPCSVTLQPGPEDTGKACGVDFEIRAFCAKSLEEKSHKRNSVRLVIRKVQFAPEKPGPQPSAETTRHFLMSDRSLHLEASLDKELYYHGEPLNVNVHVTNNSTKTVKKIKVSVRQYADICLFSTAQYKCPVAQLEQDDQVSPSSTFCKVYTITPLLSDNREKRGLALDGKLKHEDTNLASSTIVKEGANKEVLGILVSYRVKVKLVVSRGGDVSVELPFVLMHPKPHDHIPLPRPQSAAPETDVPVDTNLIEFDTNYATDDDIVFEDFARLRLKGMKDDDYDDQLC

How the values were obtained:
[1] = target: T1, endogenous GIPR of mouse islets (mouse (endogenous in islets)) (UniProt Q0P543); assay: confocal microscopy of fluorescent ligand on cells; isolated intact mouse islets, 15 minutes; WT islets with 100 nM GLP-1-TMR; WT and Gipr-/- (KO) islets with 1 µM GIP-TMR; only the binder purified
T1 sequence: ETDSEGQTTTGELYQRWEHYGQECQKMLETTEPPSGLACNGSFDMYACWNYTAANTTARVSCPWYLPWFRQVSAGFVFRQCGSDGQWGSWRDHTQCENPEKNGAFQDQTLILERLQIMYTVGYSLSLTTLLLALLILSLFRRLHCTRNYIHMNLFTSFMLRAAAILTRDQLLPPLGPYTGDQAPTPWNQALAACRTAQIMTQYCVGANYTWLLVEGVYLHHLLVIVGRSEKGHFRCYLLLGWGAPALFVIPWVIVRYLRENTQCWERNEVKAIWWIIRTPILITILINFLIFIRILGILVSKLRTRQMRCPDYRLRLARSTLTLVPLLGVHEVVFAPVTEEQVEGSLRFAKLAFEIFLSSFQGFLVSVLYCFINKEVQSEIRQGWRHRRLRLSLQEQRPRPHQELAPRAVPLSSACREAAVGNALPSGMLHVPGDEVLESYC

[2] = target: GLP-1R-SmBiT (FLAG-tagged glucagon-like peptide-1 receptor with SmBiT at the C-terminus) (UniProt P43220); assay: split reporter; NanoBiT complementation in live INS-1 832/3 GLP-1R KO or GIPR KO cells co-transfected with receptor-SmBiT and LgBiT-mini-Gs, -mini-Gq, -mini-Gi or -β-arrestin 2; 37 °C, 30 minutes with 100 nM GLP-1 or GIP; responses normalised to vehicle

binding [1]	binding [2]	Substance
binds	–	GIP-TMR (tetramethylrhodamine conjugate of GIP(1-42)) (from UniProt P09681 52-93) (peptide)
–	binds	LgBiT-β-arrestin 2 (from UniProt P32121 1-409)
